Earlier results as cited in patent publication US20240238422A1 (Osprey Biopharmaceuticals, Inc., priority 2021, published 2024).
At least one structure is not confirmed: it was looked up by name or label, or the drawing left a doubt.

Tested on: Siglec-2 (CD22)
Conditions: SAM for Siglec-2 (CD22); value of the cited reference; cited from earlier work

SMILES: COc1ccc(OC2OC(COC3(C(=O)O)CC(O)C(NC(=O)CO)C(C(O)C(O)CNCc4ccc(-c5ccc(O)cc5)cc4)O3)C(O)C(O)C2O)cc1 (centres unmarked)
- IC50: 240 nM

SMILES: COC(=O)CCCCCOC1OC(CO)C(OC2OC(COC3(C(=O)O)CC(O)C(NC(=O)CO)C(C(O)C(O)CNC(=O)Cc4ccc(-c5ccccc5)cc4)O3)C(O)C(O)C2O)C(O)C1NC(C)=O (centres unmarked)
- IC50: 2100 nM
